Laboratory results as given in article PMC7364817.
Results are given in words; binding and its absence hold for the method and conditions named. Binding seen in cells or lysates may run through a third protein. A yes stands for co-enrichment or nearness to the bait. Other partners may have been found. Sequences can lack the tags named with a protein.

B1: ribosome binding protein 1 (protein, UniProt Q9P2E9 1-1410)
chain: MDIYDTQTLGVVVFGGFMVVSAIGIFLVSTFSMKETSYEEALANQRKEMAKTHHQKVEKKKKEKTVEKKGKTKKKEEKPNGKIPDHDPAPNVTVLLREPVRAPAVAVAPTPVQPPIIVAPVATVPAMPQEKLASSPKDKKKKEKKVAKVEPAVSSVVNSIQVLTSKAAILETAPKEVPMVVVPPVGAKGNTPATGTTQGKKAEGTQNQSKKAEGAPNQGRKAEGTPNQGKKTEGTPNQGKKAEGTPNQGKKAEGTPNQGKKAEGAQNQGKKVDTTPNQGKKVEGAPTQGRKAEGAQNQAKKVEGAQNQGKKAEGAQNQGKKGEGAQNQGKKAEGAQNQGKKAEGAQNQGKKAEGAQNQGKKAEGAQNQGKKAEGAQNQGKKAEGAQNQGKKVEGAQNQGKKAEGAQNQGKKAEGAQNQGKKAEGAQNQGKKAEGAQNQGKKAEGAQNQGKKAEGAQNQGKKAEGAQNQGKKVEGAQNQGKKAEGAQNQGKKAEGAQNQGKKAEGAQNQGQKGEGAQNQGKKTEGAQGKKAERSPNQGKKGEGAPIQGKKADSVANQGTKVEGITNQGKKAEGSPSEGKKAEGSPNQGKKADAAANQGKKTESASVQGRNTDVAQSPEAPKQEAPAKKKSGSKKKGEPGPPDADGPLYLPYKTLVSTVGSMVFNEGEAQRLIEILSEKAGIIQDTWHKATQKGDPVAILKRQLEEKEKLLATEQEDAAVAKSKLRELNKEMAAEKAKAAAGEAKVKKQLVAREQEITAVQARMQASYREHVKEVQQLQGKIRTLQEQLENGPNTQLARLQQENSILRDALNQATSQVESKQNAELAKLRQELSKVSKELVEKSEAVRQDEQQRKALEAKAAAFEKQVLQLQASHRESEEALQKRLDEVSRELCHTQSSHASLRADAEKAQEQQQQMAELHSKLQSSEAEVRSKCEELSGLHGQLQEARAENSQLTERIRSIEALLEAGQARDAQDVQASQAEADQQQTRLKELESQVSGLEKEAIELREAVEQQKVKNNDLREKNWKAMEALATAEQACKEKLLSLTQAKEESEKQLCLIEAQTMEALLALLPELSVLAQQNYTEWLQDLKEKGPTLLKHPPAPAEPSSDLASKLREAEETQSTLQAECDQYRSILAETEGMLRDLQKSVEEEEQVWRAKVGAAEEELQKSRVTVKHLEEIVEKLKGELESSDQVREHTSHLEAELEKHMAAASAECQNYAKEVAGLRQLLLESQSQLDAAKSEAQKQSDELALVRQQLSEMKSHVEDGDIAGAPASSPEAPPAEQDPVQLKTQLEWTEAILEDEQTQRQKLTAEFEEAQTSACRLQEELEKLRTAGPLESSETEEASQLKERLEKEKKLTSDLGRAATRLQELLKTTQEQLAREKDTVKKLQEQLEKAEDGSSSKEGTSV
B2: nucleoporin 93 (protein, UniProt Q8N1F7 1-819)
chain: MDTEGFGELLQQAEQLAAETEGISELPHVERNLQEIQQAGERLRSRTLTRTSQETADVKASVLLGSRGLDISHISQRLESLSAATTFEPLEPVKDTDIQGFLKNEKDNALLSAIEESRKRTFGMAEEYHRESMLVEWEQVKQRILHTLLASGEDALDFTQESEPSYISDVGPPGRSSLDNIEMAYARQIYIYNEKIVNGHLQPNLVDLCASVAELDDKSISDMWTMVKQMTDVLLTPATDALKNRSSVEVRMEFVRQALAYLEQSYKNYTLVTVFGNLHQAQLGGVPGTYQLVRSFLNIKLPAPLPGLQDGEVEGHPVWALIYYCMRCGDLLAASQVVNRAQHQLGEFKTWFQEYMNSKDRRLSPATENKLRLHYRRALRNNTDPYKRAVYCIIGRCDVTDNQSEVADKTEDYLWLKLNQVCFDDDGTSSPQDRLTLSQFQKQLLEDYGESHFTVNQQPFLYFQVLFLTAQFEAAVAFLFRMERLRCHAVHVALVLFELKLLLKSSGQSAQLLSHEPGDPPCLRRLNFVRLLMLYTRKFESTDPREALQYFYFLRDEKDSQGENMFLRCVSELVIESREFDMILGKLENDGSRKPGVIDKFTSDTKPIINKVASVAENKGLFEEAAKLYDLAKNADKVLELMNKLLSPVVPQISAPQSNKERLKNMALSIAERYRAQGISANKFVDSTFYLLLDLITFFDEYHSGHIDRAFDIIERLKLVPLNQESVEERVAAFRNFSDEIRHNLSEVLLATMNILFTQFKRLKGTSPSSSSRPQRVIEDRDSQLRSQARTLITFAGMIPYRTSGDTNARLVQMEVLMN

Target: T1, FLAG-tagged SMCR8 (Smith-Magenis Syndrome Chromosome Region, Candidate 8) (UniProt Q8TEV9)
T1 sequence: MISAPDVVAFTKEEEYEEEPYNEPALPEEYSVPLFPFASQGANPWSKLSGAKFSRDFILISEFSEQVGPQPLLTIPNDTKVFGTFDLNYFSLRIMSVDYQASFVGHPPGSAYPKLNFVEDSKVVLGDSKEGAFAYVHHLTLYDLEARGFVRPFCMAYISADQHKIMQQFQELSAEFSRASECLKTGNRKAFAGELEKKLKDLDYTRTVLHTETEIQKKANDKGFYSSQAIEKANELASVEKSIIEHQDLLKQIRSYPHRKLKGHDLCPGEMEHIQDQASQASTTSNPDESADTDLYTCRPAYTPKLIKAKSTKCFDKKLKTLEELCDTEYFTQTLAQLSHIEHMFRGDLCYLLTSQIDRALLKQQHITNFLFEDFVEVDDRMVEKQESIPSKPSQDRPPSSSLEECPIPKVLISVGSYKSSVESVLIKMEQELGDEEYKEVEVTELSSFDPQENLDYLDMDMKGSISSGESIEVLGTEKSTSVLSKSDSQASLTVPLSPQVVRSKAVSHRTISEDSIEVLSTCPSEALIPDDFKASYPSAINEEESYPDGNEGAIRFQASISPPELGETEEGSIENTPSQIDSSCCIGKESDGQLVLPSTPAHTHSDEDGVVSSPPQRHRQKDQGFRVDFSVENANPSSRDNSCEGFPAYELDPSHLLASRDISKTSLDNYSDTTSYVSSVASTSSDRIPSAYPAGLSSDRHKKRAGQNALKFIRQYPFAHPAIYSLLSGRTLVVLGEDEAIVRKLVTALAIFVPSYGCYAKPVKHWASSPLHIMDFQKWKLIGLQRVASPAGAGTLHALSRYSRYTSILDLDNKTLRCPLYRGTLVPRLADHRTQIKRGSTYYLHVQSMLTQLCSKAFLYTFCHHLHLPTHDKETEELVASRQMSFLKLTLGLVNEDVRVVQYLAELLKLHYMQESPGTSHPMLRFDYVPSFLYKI
Assay: affinity purification with mass spectrometry; FL-SMCR8, C9orf72-FL or empty vector transfected in HEK 293T; α-FLAG agarose IP from whole cell lysates with or without RNase; LC-MS/MS; hits with three or more spectra and not detected in vector only control

Row | Binder | binding
1 | B1 | binds
2 | B2 | binds
